Source: patent publication US20020164348A1 (priority 2000, published 2002)
Results are given in words; binding and its absence hold for the method and conditions named. Some results given as binding are weak or reduced against the parent protein; the word gives no strength.

Sequences of proteins named here, by UniProt entry; tags and fusion partners are left off. A change or cut given only in a name is not applied to a line headed by its entry. Residues count along the entry.
UniProt P03303, residues 1720-2179: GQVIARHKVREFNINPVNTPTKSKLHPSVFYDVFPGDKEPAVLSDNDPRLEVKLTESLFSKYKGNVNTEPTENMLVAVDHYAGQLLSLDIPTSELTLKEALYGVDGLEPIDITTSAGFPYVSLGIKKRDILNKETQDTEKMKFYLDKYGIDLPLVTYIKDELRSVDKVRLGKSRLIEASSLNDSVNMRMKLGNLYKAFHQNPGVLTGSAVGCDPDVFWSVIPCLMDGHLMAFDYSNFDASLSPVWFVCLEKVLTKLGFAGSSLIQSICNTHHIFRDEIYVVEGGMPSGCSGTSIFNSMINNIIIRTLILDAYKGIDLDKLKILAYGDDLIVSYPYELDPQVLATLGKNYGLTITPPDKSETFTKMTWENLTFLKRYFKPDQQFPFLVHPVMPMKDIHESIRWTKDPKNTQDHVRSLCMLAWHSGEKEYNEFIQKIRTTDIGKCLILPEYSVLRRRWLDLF
UniProt P03317, residues 1904-2513: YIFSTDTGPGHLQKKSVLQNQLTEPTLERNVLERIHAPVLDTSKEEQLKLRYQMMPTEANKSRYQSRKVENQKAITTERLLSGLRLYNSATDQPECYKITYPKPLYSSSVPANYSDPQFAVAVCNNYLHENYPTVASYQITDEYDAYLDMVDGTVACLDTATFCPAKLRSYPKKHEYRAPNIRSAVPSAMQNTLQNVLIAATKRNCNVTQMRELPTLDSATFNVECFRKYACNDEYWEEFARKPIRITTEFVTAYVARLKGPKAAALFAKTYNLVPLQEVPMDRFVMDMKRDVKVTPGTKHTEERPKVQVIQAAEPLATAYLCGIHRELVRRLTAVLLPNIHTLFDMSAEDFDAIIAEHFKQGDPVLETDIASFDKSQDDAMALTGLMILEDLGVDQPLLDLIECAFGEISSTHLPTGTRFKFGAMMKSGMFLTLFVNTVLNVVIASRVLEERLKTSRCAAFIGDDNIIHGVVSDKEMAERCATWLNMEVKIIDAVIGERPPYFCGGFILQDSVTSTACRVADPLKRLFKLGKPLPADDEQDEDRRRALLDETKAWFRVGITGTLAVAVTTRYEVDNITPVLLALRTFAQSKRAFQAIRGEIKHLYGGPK
UniProt P0A7C2: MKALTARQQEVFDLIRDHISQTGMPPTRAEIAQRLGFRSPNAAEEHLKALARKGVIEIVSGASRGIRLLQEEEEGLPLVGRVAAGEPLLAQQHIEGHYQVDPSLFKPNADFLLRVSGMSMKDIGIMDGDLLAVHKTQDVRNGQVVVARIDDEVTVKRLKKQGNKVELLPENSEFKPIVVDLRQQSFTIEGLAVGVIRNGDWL

Assays:
[1] = molecular target: pJG-human rhinovirus 14 3D prey fusion (human rhinovirus 14) (UniProt P03303); assay: yeast two-hybrid
[2] = molecular target: pJG-Sindbis virus nsP4 prey fusion (Sindbis virus) (UniProt P03317); assay: yeast two-hybrid
[3] = molecular target: pJG-human rhinovirus 14 3D prey fusion (human rhinovirus 14) (UniProt P03303); assay: yeast two-hybrid, blue colour on X-gal plates; bait in row, prey in column
[4] = molecular target: pJG-Sindbis virus nsP4 prey fusion (Sindbis virus) (UniProt P03317); assay: as above

Measured: binding

LexA-human rhinovirus 14 3D bait fusion (from UniProt P0A7C2 1-202; P03303 1720-2179)
binds: all assays above
